Assay [1] deals with IRAK1 (mouse (endogenous in primary EPCs)) (UniProt Q62406). Kind of assay: co-IP; endogenous proteins in lysates of mouse EPCs under normal conditions (no TNF-α); anti-IRAK1 or anti-TRAF6 on Protein G Dynabeads, 4 °C overnight; Western blot. Background: Immunoblotting shows a protein as a band on a membrane.
Assay [2] has the same target. The assay is described as follows: co-IP; endogenous proteins in lysates (1 mg) of mouse EPCs treated with TNF-α (shNC or shOPN EPCs for IRAK1-TRAF6); 5 µg anti-IRAK1 or anti-TRAF6 on Protein G Dynabeads, 4 °C overnight; Western blot.
The target in assay [3] is T1, TRAF6 (mouse (endogenous in primary EPCs)) (UniProt P70196).
T1 sequence: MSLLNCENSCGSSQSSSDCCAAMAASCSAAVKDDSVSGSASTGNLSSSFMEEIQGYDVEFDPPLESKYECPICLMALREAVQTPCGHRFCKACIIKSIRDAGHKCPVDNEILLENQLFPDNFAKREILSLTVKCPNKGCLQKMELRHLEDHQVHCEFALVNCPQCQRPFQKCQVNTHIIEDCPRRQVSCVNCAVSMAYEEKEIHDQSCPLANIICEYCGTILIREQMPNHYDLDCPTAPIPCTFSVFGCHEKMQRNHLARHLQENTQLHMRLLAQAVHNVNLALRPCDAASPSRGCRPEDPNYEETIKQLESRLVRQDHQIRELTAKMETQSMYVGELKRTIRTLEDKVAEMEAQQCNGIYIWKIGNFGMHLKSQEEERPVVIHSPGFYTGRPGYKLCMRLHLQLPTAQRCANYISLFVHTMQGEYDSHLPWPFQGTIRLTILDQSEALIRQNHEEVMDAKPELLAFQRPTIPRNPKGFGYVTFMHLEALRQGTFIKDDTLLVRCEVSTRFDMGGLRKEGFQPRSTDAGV
The assay is described as above.

The chains behind the UniProt entries cited, without tags or fusion partners. Residues count along the entry.
UniProt Q62406: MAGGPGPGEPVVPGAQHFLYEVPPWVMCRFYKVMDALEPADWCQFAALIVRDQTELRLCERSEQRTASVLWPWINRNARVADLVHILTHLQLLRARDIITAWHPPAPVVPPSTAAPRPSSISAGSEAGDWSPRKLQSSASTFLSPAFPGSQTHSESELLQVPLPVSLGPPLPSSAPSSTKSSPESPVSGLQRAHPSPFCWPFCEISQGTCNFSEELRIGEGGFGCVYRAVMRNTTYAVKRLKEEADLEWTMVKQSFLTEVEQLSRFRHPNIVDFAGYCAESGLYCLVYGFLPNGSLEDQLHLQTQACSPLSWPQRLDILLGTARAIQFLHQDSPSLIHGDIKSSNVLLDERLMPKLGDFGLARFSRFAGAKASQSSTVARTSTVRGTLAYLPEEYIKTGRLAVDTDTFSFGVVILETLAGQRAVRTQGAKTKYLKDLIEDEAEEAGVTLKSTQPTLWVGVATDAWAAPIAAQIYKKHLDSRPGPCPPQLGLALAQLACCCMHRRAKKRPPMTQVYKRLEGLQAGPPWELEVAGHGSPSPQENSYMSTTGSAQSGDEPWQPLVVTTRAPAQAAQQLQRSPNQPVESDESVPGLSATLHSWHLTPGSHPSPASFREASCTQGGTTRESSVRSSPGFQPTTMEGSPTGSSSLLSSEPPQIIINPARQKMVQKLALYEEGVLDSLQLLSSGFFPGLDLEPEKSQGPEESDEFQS
UniProt P10923, residues 17-294: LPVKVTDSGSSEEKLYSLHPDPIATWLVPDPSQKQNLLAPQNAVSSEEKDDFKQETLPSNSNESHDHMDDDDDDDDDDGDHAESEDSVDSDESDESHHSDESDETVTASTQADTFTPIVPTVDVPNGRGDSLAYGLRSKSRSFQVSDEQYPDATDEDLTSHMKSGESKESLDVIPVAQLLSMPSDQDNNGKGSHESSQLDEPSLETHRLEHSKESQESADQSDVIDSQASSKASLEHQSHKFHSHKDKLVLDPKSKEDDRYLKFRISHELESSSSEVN

Results are given in words; binding and its absence hold for the method and conditions named. Binding seen in cells or lysates may run through a third protein. Some results given as binding are weak or reduced against the parent protein; the word gives no strength.

As to “Osteopontin (from UniProt P10923 17-294)”, the values for the binding result in assay [1] and in assay [2] were “no binding (condition: without TNF-α (normal conditions))” and “binds”, respectively.

With IRAK1 (from UniProt Q62406 1-710), in assay [3], the binding result was “binds”.

B1: TRAF6 (protein, UniProt P70196 1-530)
chain: T1 sequence
Regarding B1, the binding entry in assay [2] was “binds”.

The values above are taken from publication PMC11379908.
